Among the data in article doi:10.1101/2021.08.18.456771 are binding values, retold here.

Amino acid sequences for entries named in this document (tags omitted).
UniProt Q01196: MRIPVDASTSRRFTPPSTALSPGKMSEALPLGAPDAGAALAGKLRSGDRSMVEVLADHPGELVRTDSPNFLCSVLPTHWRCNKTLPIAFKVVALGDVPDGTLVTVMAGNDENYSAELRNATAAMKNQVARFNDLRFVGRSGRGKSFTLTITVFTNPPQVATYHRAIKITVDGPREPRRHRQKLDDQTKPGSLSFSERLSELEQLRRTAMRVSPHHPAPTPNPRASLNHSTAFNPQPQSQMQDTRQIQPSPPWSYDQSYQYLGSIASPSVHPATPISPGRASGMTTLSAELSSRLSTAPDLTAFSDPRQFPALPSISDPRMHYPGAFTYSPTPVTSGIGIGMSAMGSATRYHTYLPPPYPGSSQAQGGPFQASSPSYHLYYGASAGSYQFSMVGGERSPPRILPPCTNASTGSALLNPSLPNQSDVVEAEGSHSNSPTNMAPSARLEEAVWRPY

Results are given in words; binding and its absence hold for the method and conditions named. Binding seen in cells or lysates may run through a third protein. Some entries that bind do so weakly or less than the wild type. Sequences can lack the tags named with a protein.

Test [1] addresses T1, Myc-VGLL3 (UniProt A8MV65).
T1 sequence: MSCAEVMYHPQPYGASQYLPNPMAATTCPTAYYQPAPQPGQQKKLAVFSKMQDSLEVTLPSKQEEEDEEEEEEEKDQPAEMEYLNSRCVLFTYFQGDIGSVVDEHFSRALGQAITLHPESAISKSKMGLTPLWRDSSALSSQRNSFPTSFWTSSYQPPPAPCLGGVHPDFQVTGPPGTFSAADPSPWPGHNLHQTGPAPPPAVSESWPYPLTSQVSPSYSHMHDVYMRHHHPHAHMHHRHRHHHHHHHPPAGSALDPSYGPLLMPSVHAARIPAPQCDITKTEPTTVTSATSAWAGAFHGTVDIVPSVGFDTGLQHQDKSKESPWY
Briefly: co-IP.

The target of test [2] is T2, FLAG-VGLL3 (stably expressed in MelJuSo cells) (UniProt A8MV65).
T2 sequence: T1 sequence
The test is described as follows: co-IP.

Consider HA-RUNX1 (from UniProt Q01196 1-453), for which, in test [1], the binding entry was “binds”.

In the case of “RUNX1 (endogenous) (from UniProt Q01196 1-453)”, in test [2], the binding entry was “binds”.
